This note sets out measurements from paper PMC10632493.

Protein sequences, listed by entry. Tags and fused reporters are not part of them.
UniProt Q9C0C2: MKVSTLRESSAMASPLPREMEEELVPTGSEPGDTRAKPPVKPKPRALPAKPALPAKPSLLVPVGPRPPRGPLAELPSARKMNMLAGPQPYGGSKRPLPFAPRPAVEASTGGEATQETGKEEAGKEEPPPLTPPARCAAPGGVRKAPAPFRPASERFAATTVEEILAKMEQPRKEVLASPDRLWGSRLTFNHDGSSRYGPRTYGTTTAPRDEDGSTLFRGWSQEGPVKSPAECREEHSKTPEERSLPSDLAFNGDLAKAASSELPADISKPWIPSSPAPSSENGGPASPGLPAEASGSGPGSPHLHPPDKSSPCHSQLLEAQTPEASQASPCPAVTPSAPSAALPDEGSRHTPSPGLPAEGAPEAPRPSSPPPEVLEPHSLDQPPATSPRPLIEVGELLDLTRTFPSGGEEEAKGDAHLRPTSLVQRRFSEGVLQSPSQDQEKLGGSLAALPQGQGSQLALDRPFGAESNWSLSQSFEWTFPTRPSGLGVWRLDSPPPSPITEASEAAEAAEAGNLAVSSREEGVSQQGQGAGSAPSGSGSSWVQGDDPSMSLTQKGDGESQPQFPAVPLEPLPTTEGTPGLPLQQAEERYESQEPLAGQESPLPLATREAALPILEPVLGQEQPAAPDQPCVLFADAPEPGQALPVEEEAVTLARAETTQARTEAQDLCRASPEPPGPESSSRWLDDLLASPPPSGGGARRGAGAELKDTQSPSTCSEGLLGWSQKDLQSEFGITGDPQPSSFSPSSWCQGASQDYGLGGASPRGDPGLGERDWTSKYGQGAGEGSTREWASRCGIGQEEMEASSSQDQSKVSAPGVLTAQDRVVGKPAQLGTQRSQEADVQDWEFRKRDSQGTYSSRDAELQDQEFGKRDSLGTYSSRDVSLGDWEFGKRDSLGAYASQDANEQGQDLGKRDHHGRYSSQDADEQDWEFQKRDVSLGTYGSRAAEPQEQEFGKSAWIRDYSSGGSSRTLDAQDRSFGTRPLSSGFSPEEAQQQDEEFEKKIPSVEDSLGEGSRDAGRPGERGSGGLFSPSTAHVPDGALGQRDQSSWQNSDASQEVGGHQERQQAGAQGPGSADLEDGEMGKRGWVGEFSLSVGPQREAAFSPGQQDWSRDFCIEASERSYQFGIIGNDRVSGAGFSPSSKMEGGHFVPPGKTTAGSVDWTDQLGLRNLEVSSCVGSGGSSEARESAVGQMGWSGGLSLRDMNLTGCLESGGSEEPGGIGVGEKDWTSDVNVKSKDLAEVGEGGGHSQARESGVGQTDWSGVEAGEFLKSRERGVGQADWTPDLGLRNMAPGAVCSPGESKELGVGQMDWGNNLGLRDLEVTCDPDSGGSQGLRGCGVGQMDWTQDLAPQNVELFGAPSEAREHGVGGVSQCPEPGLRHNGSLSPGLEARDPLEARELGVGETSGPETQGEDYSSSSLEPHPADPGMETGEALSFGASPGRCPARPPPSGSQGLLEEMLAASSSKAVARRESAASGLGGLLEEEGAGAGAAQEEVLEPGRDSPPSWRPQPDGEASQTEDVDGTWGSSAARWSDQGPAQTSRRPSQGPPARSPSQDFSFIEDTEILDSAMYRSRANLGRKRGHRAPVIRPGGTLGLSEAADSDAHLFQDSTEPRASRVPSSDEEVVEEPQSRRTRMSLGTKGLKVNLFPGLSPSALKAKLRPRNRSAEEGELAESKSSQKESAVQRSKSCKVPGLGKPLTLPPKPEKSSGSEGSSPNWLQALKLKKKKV

No constants are given. Whether binding was seen depends on the method and setting. Binding seen in cells or lysates may run through a third protein. Here binding means that the protein was enriched with, or labelled near, the bait; the list need not be complete.

In this test the target is Flag-epitope-tagged RNF166 (FlagRNF166) (UniProt Q96A37). Nature of the test: affinity purification with mass spectrometry; cells transfected with FlagRNF166 alone, FlagRNF166 plus TNKS1, or FlagBAP plus TNKS1 (TNKS1/2 DKO cells by the results, HEK293T by the methods); anti-Flag beads, elution with 3xFlag peptide; LC-MS/MS.

On to “endogenous tankyrase binding protein 1, TNKSBP1 (TAB182) (from UniProt Q9C0C2 1-1729)”, for which the binding entry is “binds”.
